The results in this text go back to patent US9179682B2, “Biocides and apparatus” (A.Y. Laboratories Ltd., priority 2004, dated 2015).

SMILES strings stand for the structures.

A short description of the data set: Reduction of Na2S: total sulfur and sulfate after addition of oxidizer, Series 7. To be noted: 100 ml DI water with ~5 mg sodium sulfide; several days after addition of oxidizer.

For the compound `O=N[O-].[Na+]` [Test A, NaNO2], the “% SO4 formed” value is 0%.

Consider `N.NC(=O)O` [Test B, ammonium carbamate], for which the “% SO4 formed” value amounted to 45.63%.
